{"sequences": {"note": "Chains of the proteins cited; added tags and fusions are not shown. Residues count along the entry.", "UniProt P03952, 20-390 limits assumed": "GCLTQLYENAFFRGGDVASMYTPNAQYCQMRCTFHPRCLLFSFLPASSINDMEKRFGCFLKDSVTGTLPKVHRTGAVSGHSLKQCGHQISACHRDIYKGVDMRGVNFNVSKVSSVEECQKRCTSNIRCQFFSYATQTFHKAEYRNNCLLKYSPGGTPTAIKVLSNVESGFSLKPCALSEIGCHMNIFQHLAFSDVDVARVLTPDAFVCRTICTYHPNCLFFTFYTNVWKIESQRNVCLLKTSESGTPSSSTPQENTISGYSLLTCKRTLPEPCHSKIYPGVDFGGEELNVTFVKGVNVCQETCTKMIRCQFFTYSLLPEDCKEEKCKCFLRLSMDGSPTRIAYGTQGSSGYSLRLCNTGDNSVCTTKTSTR", "UniProt P03952, 391-638 limits assumed": "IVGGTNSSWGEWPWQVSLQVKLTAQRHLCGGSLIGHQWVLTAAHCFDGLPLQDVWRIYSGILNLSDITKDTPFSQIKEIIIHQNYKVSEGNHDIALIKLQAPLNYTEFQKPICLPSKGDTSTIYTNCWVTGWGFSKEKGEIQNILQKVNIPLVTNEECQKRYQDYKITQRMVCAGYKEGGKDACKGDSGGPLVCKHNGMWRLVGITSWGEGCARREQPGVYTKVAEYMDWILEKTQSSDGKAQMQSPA"}, "source": "patent US8663629B2", "about": "“Kallikrein-binding “kunitz domain” proteins and analogues thereof” (Dyax Corp., priority 1994, dated 2014)", "molecular_target": "plasma Kallikrein (Homo sapiens, UniProt P03952)", "assay": "Display-phage binding to human plasma kallikrein-agarose beads", "parameters": "The light chain (248 residues) carries the catalytic site; purchased Calbiochem #420302", "details": "versus Trasylol", "experimental": "This method is highly sensitive because the genetic packages can be amplified. We obtain at least semiquantitative values for the binding constants by use of a pH step gradient.\nThe overall scheme for selecting a LACI(K1) variant to bind to a given protease involves incubation of the phage-display library with the kallikrein-beads of interest in a buffered solution (PBS containing 1 mg/ml BSA) followed by washing away the unbound and poorly retained display-phage variant with PBS containing 0.1% Tween 20. Kallikrein beads were made by coupling human plasma Kallikrein (Calbiochem, San Diego, Calif., #420302) to agarose beads using Reactigel (6×) (Pierce, Rockford, Ill., #202606). […]\nThe neutralized eluted display-phage can be either used: • i) to inoculate an F^+ strain of E. coli to generate a new display-phage stock, to be used for subsequent rounds of selection (so-called conventional screening), or • ii) be used directly for another immediate round of selection with the protease beads (so-called quick screening). Typically, three rounds of either method, or a combination of the two, are performed to give rise to the final selected display-phage from which a representative number are sequenced and analyzed for binding properties either as pools of display-phage or as individual clones.", "note": "At least one peptide structure holds a part that was inferred or is arguable (an end, a ring closure or a residue). Bridge positions count the residues as written; N and C are the ends. Ends that are not written are not given here."}
{"sequence": "MHSFCAFKADDGHCKANHQRFFFNIFTRQCEEFSYGGCGGNQNRFESLEECKKMCTRD (disulfide 5-55, 14-38, 30-51) [KKII/3#6]", "values": [{"measurement": "kallikrein binding potency compared with Trasylol", "value": "significantly greater"}]}
